No constants are given. Whether binding was seen depends on the method and setting. In cells and extracts the contact can be indirect. Some entries that bind do so weakly or less than the wild type.
How the values were obtained:
[1] = biological target: SOCS2-GFP (human suppressor of cytokine signaling 2 fused to green fluorescent protein) (human) (UniProt O14508); assay: co-IP; ARPE-19 cells transiently transfected with GFP control vectors or SOCS2-GFP plasmids, starved; which protein was precipitated is not told; no methods for the immunoprecipitation
[2] = biological target: lysosome-associated membrane protein2 (LAMP2) (human (endogenous in ARPE-19)) (UniProt P13473); assay: proximity ligation; Duolink in situ fluorescence on serum-starved ARPE-19 cells fixed with 4% paraformaldehyde; endogenous proteins, antibodies to SOCS2 and to ubiquitin or LAMP2; negative group without antibodies

Amino acid sequences for entries named in this document (tags omitted). Residues count along the entry.
UniProt P13473, residues 29-410: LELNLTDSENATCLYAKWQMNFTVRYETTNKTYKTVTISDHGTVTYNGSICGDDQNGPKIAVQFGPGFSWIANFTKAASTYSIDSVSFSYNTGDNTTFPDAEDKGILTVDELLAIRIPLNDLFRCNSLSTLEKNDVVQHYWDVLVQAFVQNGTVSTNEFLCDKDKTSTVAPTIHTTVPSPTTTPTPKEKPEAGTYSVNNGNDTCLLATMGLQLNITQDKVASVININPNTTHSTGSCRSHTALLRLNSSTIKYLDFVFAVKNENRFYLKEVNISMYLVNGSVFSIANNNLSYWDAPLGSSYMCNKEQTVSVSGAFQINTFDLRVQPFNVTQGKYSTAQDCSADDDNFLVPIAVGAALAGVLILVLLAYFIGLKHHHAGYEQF

binding [1]	binding [2]	Substance
binds	–	sequestosome 1 (SQSTM1/p62) (from UniProt Q13501 1-440)
–	binds	suppressor of cytokine signaling 2 (SOCS2), endogenous (from UniProt O14508 1-198)

Reference: article PMC8606588
